Laboratory results reported in paper PMC10897228.
These are yes or no findings as the source states them, for the method shown. Binding calls can cover weak binding; strength is not graded here.

B1: MIRO1-1-594 (domain or fragment, UniProt Q8IXI2 1-594)
chain: MKKDVRILLVGEPRVGKTSLIMSLVSEEFPEEVPPRAEEITIPADVTPERVPTHIVDYSEAEQSDEQLHQEISQANVICIVYAVNNKHSIDKVTSRWIPLINERTDKDSRLPLILVGNKSDLVEYSSMETILPIMNQYTEIETCVECSAKNLKNISELFYYAQKAVLHPTGPLYCPEEKEMKPACIKALTRIFKISDQDNDGTLNDAELNFFQRICFNTPLAPQALEDVKNVVRKHISDGVADSGLTLKGFLFLHTLFIQRGRHETTWTVLRRFGYDDDLDLTPEYLFPLLKIPPDCTTELNHHAYLFLQSTFDKHDLDRDCALSPDELKDLFKVFPYIPWGPDVNNTVCTNERGWITYQGFLSQWTLTTYLDVQRCLEYLGYLGYSILTEQESQASAVTVTRDKKIDLQKKQTQRNVFRCNVIGVKNCGKSGVLQALLGRNLMRQKKIREDHKSYYAINTVYVYGQEKYLLLHDISESEFLTEAEIICDVVCLVYDVSNPKSFEYCARIFKQHFMDSRIPCLIVAAKSDLHEVKQEYSISPTDFCRKHKMPPPQAFTCNTADAPSKDIFVKLTTMAMYPHVTQADLKSSTFWL
B2: MIRO1-1-400 (domain or fragment, UniProt Q8IXI2 1-400)
chain: MKKDVRILLVGEPRVGKTSLIMSLVSEEFPEEVPPRAEEITIPADVTPERVPTHIVDYSEAEQSDEQLHQEISQANVICIVYAVNNKHSIDKVTSRWIPLINERTDKDSRLPLILVGNKSDLVEYSSMETILPIMNQYTEIETCVECSAKNLKNISELFYYAQKAVLHPTGPLYCPEEKEMKPACIKALTRIFKISDQDNDGTLNDAELNFFQRICFNTPLAPQALEDVKNVVRKHISDGVADSGLTLKGFLFLHTLFIQRGRHETTWTVLRRFGYDDDLDLTPEYLFPLLKIPPDCTTELNHHAYLFLQSTFDKHDLDRDCALSPDELKDLFKVFPYIPWGPDVNNTVCTNERGWITYQGFLSQWTLTTYLDVQRCLEYLGYLGYSILTEQESQASAVT
B3: MIRO1-1-280 (domain or fragment, UniProt Q8IXI2 1-280)
chain: MKKDVRILLVGEPRVGKTSLIMSLVSEEFPEEVPPRAEEITIPADVTPERVPTHIVDYSEAEQSDEQLHQEISQANVICIVYAVNNKHSIDKVTSRWIPLINERTDKDSRLPLILVGNKSDLVEYSSMETILPIMNQYTEIETCVECSAKNLKNISELFYYAQKAVLHPTGPLYCPEEKEMKPACIKALTRIFKISDQDNDGTLNDAELNFFQRICFNTPLAPQALEDVKNVVRKHISDGVADSGLTLKGFLFLHTLFIQRGRHETTWTVLRRFGYDDDL
B4: MIRO1-181-594 (domain or fragment, UniProt Q8IXI2 181-594)
chain: MKPACIKALTRIFKISDQDNDGTLNDAELNFFQRICFNTPLAPQALEDVKNVVRKHISDGVADSGLTLKGFLFLHTLFIQRGRHETTWTVLRRFGYDDDLDLTPEYLFPLLKIPPDCTTELNHHAYLFLQSTFDKHDLDRDCALSPDELKDLFKVFPYIPWGPDVNNTVCTNERGWITYQGFLSQWTLTTYLDVQRCLEYLGYLGYSILTEQESQASAVTVTRDKKIDLQKKQTQRNVFRCNVIGVKNCGKSGVLQALLGRNLMRQKKIREDHKSYYAINTVYVYGQEKYLLLHDISESEFLTEAEIICDVVCLVYDVSNPKSFEYCARIFKQHFMDSRIPCLIVAAKSDLHEVKQEYSISPTDFCRKHKMPPPQAFTCNTADAPSKDIFVKLTTMAMYPHVTQADLKSSTFWL
B5: MIRO1-181-400 (domain or fragment, UniProt Q8IXI2 181-400)
chain: MKPACIKALTRIFKISDQDNDGTLNDAELNFFQRICFNTPLAPQALEDVKNVVRKHISDGVADSGLTLKGFLFLHTLFIQRGRHETTWTVLRRFGYDDDLDLTPEYLFPLLKIPPDCTTELNHHAYLFLQSTFDKHDLDRDCALSPDELKDLFKVFPYIPWGPDVNNTVCTNERGWITYQGFLSQWTLTTYLDVQRCLEYLGYLGYSILTEQESQASAVT
B6: MIRO1-281-594 (domain or fragment, UniProt Q8IXI2 281-594)
chain: DLTPEYLFPLLKIPPDCTTELNHHAYLFLQSTFDKHDLDRDCALSPDELKDLFKVFPYIPWGPDVNNTVCTNERGWITYQGFLSQWTLTTYLDVQRCLEYLGYLGYSILTEQESQASAVTVTRDKKIDLQKKQTQRNVFRCNVIGVKNCGKSGVLQALLGRNLMRQKKIREDHKSYYAINTVYVYGQEKYLLLHDISESEFLTEAEIICDVVCLVYDVSNPKSFEYCARIFKQHFMDSRIPCLIVAAKSDLHEVKQEYSISPTDFCRKHKMPPPQAFTCNTADAPSKDIFVKLTTMAMYPHVTQADLKSSTFWL
B7: MIRO1-181-280 (domain or fragment, UniProt Q8IXI2 181-280)
chain: MKPACIKALTRIFKISDQDNDGTLNDAELNFFQRICFNTPLAPQALEDVKNVVRKHISDGVADSGLTLKGFLFLHTLFIQRGRHETTWTVLRRFGYDDDL
B8: MIRO1-281-400 (domain or fragment, UniProt Q8IXI2 281-400)
chain: DLTPEYLFPLLKIPPDCTTELNHHAYLFLQSTFDKHDLDRDCALSPDELKDLFKVFPYIPWGPDVNNTVCTNERGWITYQGFLSQWTLTTYLDVQRCLEYLGYLGYSILTEQESQASAVT
B9: MIRO1-401-594 (domain or fragment, UniProt Q8IXI2 401-594)
chain: VTRDKKIDLQKKQTQRNVFRCNVIGVKNCGKSGVLQALLGRNLMRQKKIREDHKSYYAINTVYVYGQEKYLLLHDISESEFLTEAEIICDVVCLVYDVSNPKSFEYCARIFKQHFMDSRIPCLIVAAKSDLHEVKQEYSISPTDFCRKHKMPPPQAFTCNTADAPSKDIFVKLTTMAMYPHVTQADLKSSTFWL

Each binder was assayed against CENPF-2819-3114 (assay: two-hybrid; LexA-based yeast two-hybrid growth assay in EGY48; MIRO1 construct as prey (pJG4-5), bait in pEG202; streaked on SC-Leu+Gal, 30 °C).

Row | Binder | binding
1 | B1 | binds
2 | B2 | binds
3 | B3 | binds
4 | B4 | no binding
5 | B5 | no binding
6 | B6 | no binding
7 | B7 | no binding
8 | B8 | no binding
9 | B9 | no binding
